Measured data: PubChem BioAssay AID652272 (Drosophila RNAi Screening Center, 2013)
The screen tested about 21,000 reagents; below is an unselected part of those that have a named target and a result. Over the whole deposit, 503 (2.4%) were called active. 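Raw plate light values, not normalised; calls rest on replicate z-scores that were not deposited; hits include reporter decreases as well as increases.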 Entries without a mark were called inactive. No sequences are given here. The record does not give: the amount of reagent, the time to read-out.

Assay: 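Genome-wide knock-down search for components of Hedgehog signalling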 (primary screen)
Cells: Drosophila clone 8 (Cl8) cells
Reagents: long dsRNA against Drosophila genes
Measured: 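Plate reader light from a firefly reporter under a ptc promoter fragment that responds to Hedgehog, with Renilla light as transfection reference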
Reading the numbers: firefly Hh reporter signal: higher = more ptc reporter light; Renilla reference signal: higher = more Renilla control light
Rule for the call: 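Called a hit if the two-replicate mean z-score lies below -2 or above +3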
Calls: active = hit: reporter lowered or raised; inactive = not a hit

Gene | dsRNA | firefly Hh reporter signal, replicate 1 | firefly Hh reporter signal, replicate 2 | Renilla reference signal, replicate 1 | Renilla reference signal, replicate 2
CG9171 | DRSC03152 | 1.96e5 | 1.26e5 | 6980 | 5425
eIF4H1 | DRSC20276 | 59168 | 2.05e5 | 1265 | 7082
TkR99D | DRSC16881 | 1.31e5 | 1.60e5 | 4498 | 4483
CG8929 | DRSC07298 | 1.78e5 | 1.06e5 | 7123 | 4859
Spn42Db | DRSC05009 | 70484 | 70400 | 1739 | 5194
l(1)G0469 | DRSC19412 | 1.45e5 | 99724 | 3237 | 2597
l(1)G0469 | DRSC19462 | 67496 | 1.68e5 | 1925 | 8056
smp-30 | DRSC17059 | 1.11e5 | 93723 | 4278 | 2540
elg1 | DRSC10229 | 39929 | 58864 | 1893 | 2631
AP-1-2beta | DRSC19336 | 79360 | 2.45e5 | 1853 | 9082
ppk10 | DRSC01123 | 5.40e5 | 2.08e5 | 25828 | 9943
CG43277 | DRSC05800 | 1.38e5 | 2.84e5 | 3724 | 11509
mus101 | DRSC19388 | 1.18e5 | 2.30e5 | 3478 | 10165
CG42841 | DRSC07962 | 90507 | 1.38e5 | 2785 | 5848
CG11334 | DRSC14066 | 5.50e5 | 1.97e5 | 26211 | 3623
CG11334 | DRSC14302 | 92199 | 2.42e5 | 1746 | 8789
Khc | DRSC07448 | 1.39e5 | 1.30e5 | 5987 | 5645
CR10032 | DRSC12499 | 72812 | 99024 | 2982 | 2667
Polr2B | DRSC16831 | 1.12e5 | 99248 | 3482 | 2829
ng2 | DRSC18803 | 84100 | 2.65e5 | 3219 | 8333
CG31406 | DRSC12777 | 2.03e5 | – | 3809 | –
CG6012 | DRSC02921 | 96611 | 72353 | 2518 | 5771
CG12869 | DRSC06208 | 71376 | 42889 | 1824 | 3234
CG1532 | DRSC20516 | 1.19e5 | 1.06e5 | 2955 | 2477
CG8840 | DRSC00713 | 1.03e5 | 67290 | 2368 | 6209
Nepl21 | DRSC14133 | 73746 | 1.16e5 | 1162 | 2533
dod | DRSC20577 | 86397 | 3.18e5 | 2027 | 15764
mRpL1 | DRSC16251 | 62068 | 1.10e5 | 2356 | 2515
lft | DRSC02236 | 68070 | 67207 | 2298 | 6475
LSm7 | DRSC02251 | 1.13e5 | 41097 | 3170 | 4389
CG10137 | DRSC02014 | 37921 | 29616 | 2214 | 1373
CG10137 | DRSC02015 | 66325 | 38780 | 1707 | 3218
CG7579 | DRSC10885 | 82534 | – | 2826 | 2050
CG5098 | DRSC06915 | 2.04e5 | 1.20e5 | 8805 | 5946
Alp2 | DRSC04354 | 1.69e5 | 63624 | 3693 | 5655
Drsl2 | DRSC08160 | 92230 | 59485 | 2194 | 5536
Acp26Ab | DRSC01856 | 1.30e5 | 84160 | 3404 | 7876
CG2901 | DRSC18239 | 72250 | 1.99e5 | 1379 | 8128
CG13028 | DRSC09908 | 1.49e5 | – | 7411 | 4328

Already shown: 3 of the entries above.
Gene | dsRNA | firefly Hh reporter signal, replicate 1 | firefly Hh reporter signal, replicate 2 | Renilla reference signal, replicate 1 | Renilla reference signal, replicate 2
Polr2B | DRSC16831 | 1.12e5 | 99248 | 3482 | 2829
ng2 | DRSC18803 | 84100 | 2.65e5 | 3219 | 8333
CG31406 | DRSC12777 | 2.03e5 | – | 3809 | –
